Results taken from patent EP4737479A1.
Positions count from the first letter of the chain named. No constants are given. Whether binding was seen depends on the method and setting. Some entries that bind do so weakly or less than the wild type.

Chains of the proteins cited; added tags and fusions are not shown. Residues count along the entry.
UniProt Q07011, residues 24-186: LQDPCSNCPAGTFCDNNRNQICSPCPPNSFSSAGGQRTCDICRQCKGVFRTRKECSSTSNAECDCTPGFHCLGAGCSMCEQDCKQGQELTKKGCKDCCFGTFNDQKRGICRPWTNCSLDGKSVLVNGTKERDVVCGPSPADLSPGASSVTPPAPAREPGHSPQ

B1: VHH1 (VHH)
VHH: EVQLVESGGGLVQPGGSLRLSCAASGFTFSSYAMGWVRQAPGKGREFVSAISGNGGSTYYADSVKGRFTISRDNSKNTLYLQMNSLRAEDTAVYYCAAGYSYLYPGGLSTRPSFYDYWGQGTQVTVSS
B2: VHH15 (VHH)
VHH: B1 VHH with N54Y, Y100S, S101G, Y102L, L103Y, Y104S, P105S, G106Y, L108V, R111D
B3: VHH2 (VHH)
VHH: B1 VHH with Y100D, S101A, L103V, G106Y, L108V, R111D
B4: VHH6 (VHH)
VHH: B1 VHH with N54S
B5: VHH8 (VHH)
VHH: B1 VHH with Y59F
B6: VHH15-1 (VHH)
VHH: B1 VHH with Y104S, L108V
B7: VHH16 (VHH)
VHH: B1 VHH with N54S, S57T, Y100T, S101G, L103Y, Y104S, P105R, G106V, L108V, R111D
B8: VHH13 (VHH)
VHH: B1 VHH with N54Y, S57T, Y100T, S101G, L103Y, Y104S, P105R, G106V, L108V, R111D

biological target: human 4-1BB antigen (human) (UniProt Q07011); assay: ELISA screen of phage display clones

binding | Binder
binds | B1
binds | B2
binds | B3
binds | B4
binds | B5
binds | B6
binds | B7
binds | B8
